This passage reports cell viability results from the supplement of paper PMC3682954.

The structures appear in SMILES notation. Where a name gives a salt, the structure may show the parent alone. ± gives the standard deviation of the averaged measurements. This is one part of the list. Most values come without repeats; read them as rough.

The test system of this test is RAW 264.7. Put plainly: cell viability (MTT) relative to vehicle control; higher = more viable cells. The note with it: stimulus: HMGB1 5 ug/ml, 18 h.
[1] abbreviates: compound concentration: 1 ug/ml.

As for `Nc1ccn([C@@H]2O[C@H](CO)[C@@H](O)[C@H]2O)c(=O)n1` [Cytidine], the cell viability under setting [1] was determined as 103%. As for `CC(C)CCC[C@@H](C)[C@H]1CC[C@H]2[C@@H]3CC=C4C[C@@H](O)CC[C@]4(C)[C@H]3CC[C@]12C`, the cell viability (compound concentration: 3 uM) was determined as 97.8%. Same read-out and setting: next, `Cc1c(O)cccc1C(=O)N[C@@H](CSc1ccccc1)[C@H](O)CN1C[C@H]2CCCC[C@H]2C[C@H]1C(=O)NC(C)(C)C` [Nelfinavir mesylate]: 99.7%; `Cc1c(O)cccc1C(=O)N[C@@H](CSc1ccccc1)[C@H](O)CN1C[C@H]2CCCC[C@H]2C[C@H]1C(=O)NC(C)(C)C`: 89.7%. Consider `CCSc1ccc2c(c1)N(CCCN1CCN(C)CC1)c1ccccc1S2` [Thiethylperazine malate], for which, for the setting “compound concentration: 3 uM”, the cell viability is 87.2%. Regarding `CCOc1ccc2cc(-c3ccccc3Cl)c(=O)oc2c1` [3(2'-Chlorophenyl)-7-ethoxycoumarin], the cell viability under setting [1] turned out to be 114%. `COC1=C(OC)C(=O)c2ccccc2C1=O` [2,3-Dimethoxy-1,4-naphthoquinone]: the cell viability (compound concentration: 3 uM) amounted to 79.4%.

For the molecule `COc1ccc(/C=C2\COc3ccc(C)cc3C2=O)cc1O`, the cell viability (compound concentration: 3 uM) was determined as 109%. The same measure, in the same setting: in the case of `CC(CCc1ccc(O)cc1)NCC(O)c1ccc(O)cc1` (stereo unspecified) [Ractopamine] it was 98.6%; in that of `CC(=O)[C@H]1CC[C@H]2[C@@H]3CC=C4C[C@@H](OC(=O)CCC(=O)O)CC[C@]4(C)[C@H]3CC[C@]12C`, 127%; in that of `CCCCC(CC)COC(=O)c1ccccc1O` (stereo unspecified), 98.1%. Consider `CCN(CCCc1ccccc1)CCCc1ccccc1`, for which the cell viability (compound concentration: 3 uM) was 105%. On the same count and under the same terms, in the case of `CCN(CCCc1ccccc1)CCCc1ccccc1` [Alverine citrate salt] it was 111%; in that of `CC(C)(C)C(O)/C=C/c1ccc2c(c1)OCO2` (stereo unspecified) [Stiripentol], 92.6%. `CC[C@]1(O)C[C@@H]2CN(CCc3c([nH]c4ccccc34)[C@@](C(=O)OC)(c3cc4c(cc3OC)N(C)[C@H]3[C@@](O)(C(=O)OC)[C@H](OC(C)=O)[C@]5(CC)C=CCN6CC[C@]43[C@@H]65)C2)C1`: the cell viability (compound concentration: 3 uM) was found to be 78.6 ± 10%. As to `CC[C@]1(O)C[C@@H]2CN(CCc3c([nH]c4ccccc34)[C@@](C(=O)OC)(c3cc4c(cc3OC)N(C)[C@H]3[C@@](O)(C(=O)OC)[C@H](OC(C)=O)[C@]5(CC)C=CCN6CC[C@]43[C@@H]65)C2)C1` [Vinblastine], where the note is “compound concentration: 3 uM”, the cell viability was 85.1%. For `CC[C@]1(O)C[C@@H]2CN(CCc3c([nH]c4ccccc34)[C@@](C(=O)OC)(c3cc4c(cc3OC)N(C)[C@H]3[C@@](O)(C(=O)OC)[C@H](OC(C)=O)[C@]5(CC)C=CCN6CC[C@]43[C@@H]65)C2)C1` [Vinblastine sulfate salt], for the setting “compound concentration: 3 uM”, the cell viability is 89.9%. For the molecule `CCCCC#Cc1nc(NC)c2ncn([C@@H]3O[C@H](CO)[C@@H](O)[C@H]3O)c2n1`, the cell viability (compound concentration: 3 uM) was determined as 97%. As for `CCN(CC)C(=O)N1CCN(C)CC1`, the cell viability (compound concentration: 3 uM) is 99.6%.

In the case of `CCN(CC)C(=O)N1CCN(C)CC1` [Diethylcarbamazine citrate], the cell viability (compound concentration: 3 uM) is 95%. `O=C(O)c1cc(O)c(O)c(O)c1`: the cell viability (compound concentration: 3 uM) was found to be 107%. For the molecule `Nc1nccc2c1ncn2[C@@H]1O[C@H](CO)[C@@H](O)[C@H]1O` [3-deazaadenosine], the cell viability (compound concentration: 3 uM) amounted to 96.1%.

As for `N[C@@H](Cc1ccc(F)cc1)C(=O)O` [p-Fluoro-L-phenylalanine], where the note is “compound concentration: 3 uM”, the cell viability was determined as 104%. In the case of `O=P(O)(O)C(O)(Cc1cccnc1)P(=O)(O)O` [Risedronic acid], the cell viability (compound concentration: 3 uM) came out at 94.4%.

In the case of `O=P(O)(O)C(O)(Cc1cccnc1)P(=O)(O)O`, where the note is “compound concentration: 3 uM”, the cell viability was 97.8%. On the same count and under the same terms, next, `CCCC(C(=O)OCCN(CC)CC)(c1ccccc1)c1ccccc1` [Proadifen hydrochloride]: 114%. As for `CCCC(C(=O)OCCN(CC)CC)(c1ccccc1)c1ccccc1`, the cell viability (compound concentration: 3 uM) came out at 108%. As to `CCCC(C(=O)OCCN(CC)CC)(c1ccccc1)c1ccccc1` [SKF-525A hydrochloride], the cell viability (compound concentration: 3 uM) is 99.9%. Turning to `CCC1=C[C@H]2CN(C1)Cc1c([nH]c3ccccc13)[C@@](C(=O)OC)(c1cc3c(cc1OC)N(C)[C@H]1[C@@](O)(C(=O)OC)[C@H](OC(C)=O)[C@]4(CC)C=CCN5CC[C@]31[C@@H]54)C2`, the cell viability (compound concentration: 3 uM) was determined as 78.2%.

As for `CN1CCC[C@H]1c1cccnc1` [Nicotine], the cell viability under setting [1] worked out at 98.8%. As for `CN1CCC[C@H]1c1cccnc1`, the cell viability (compound concentration: 3 uM) was 101%. On to `CN1CCC[C@H]1c1cccnc1` [(-)-Nicotine hydrogen tartrate salt], for which the cell viability (compound concentration: 3 uM) was determined as 119%. For `COc1cc(CC(=O)O)ccc1O` [4-Hydroxy-3-methoxyphenylacetic acid], the cell viability (compound concentration: 3 uM) was 106%. For `C=CC[N@@+]12CC[C@@]34c5ccccc5N5/C=C6/[C@H]7C[C@H]8[C@@]9(CC[N@@+]8(CC=C)C/C7=C/CO)c7ccccc7N(/C=C(/[C@@H](C[C@@H]31)/C(=C\CO)C2)[C@H]54)[C@@H]69` [Alcuronium chloride], the cell viability (compound concentration: 3 uM) worked out at 89.8%.

For `CC(C)=CCC/C(C)=C/COc1ccc2ccc(=O)oc2c1`, the cell viability (compound concentration: 3 uM) amounted to 137%. For `CO/N=C1\CN(c2nc3c(cc2F)c(=O)c(C(=O)O)cn3C2CC2)CC1CN` (stereo unspecified), the cell viability (compound concentration: 3 uM) amounted to 111%.

For `NC(=O)NO`, the cell viability (compound concentration: 3 uM) turned out to be 102.86 ± 0.064%. The same measure, in the same setting: in the case of `NC(=O)NO` [Hydroxyurea] it was 109%. `Clc1ccccc1C(c1ccccc1)(c1ccccc1)n1ccnc1` [Clotrimazole]: where the note is “compound concentration: 3 uM”, the cell viability is 84.4 ± 7.1%. Regarding `Clc1ccccc1C(c1ccccc1)(c1ccccc1)n1ccnc1`, under “compound concentration: 3 uM”, the cell viability was found to be 98.08 ± 0.62%. In the case of `CCNc1nc2c(ncn2[C@H]2C[C@H](O)[C@@H](CO)O2)c(=O)[nH]1` [N2-Ethyl-2'-deoxyguanosine], the cell viability (compound concentration: 3 uM) came to 140%.

Regarding `Clc1ccc(COC(Cn2ccnc2)c2ccc(Cl)cc2Cl)cc1` (stereo unspecified), the cell viability (compound concentration: 3 uM) was 105%. As for `Clc1ccc(COC(Cn2ccnc2)c2ccc(Cl)cc2Cl)cc1` (stereo unspecified) [Econazole nitrate], where the note is “compound concentration: 3 uM”, the cell viability is 104%. In the case of `COc1ccccc1CNCCCCCCNCCCCCCCCNCCCCCCNCc1ccccc1OC` [Methoctramine tetrahydrochloride], the cell viability (compound concentration: 3 uM) turned out to be 119%. `O=C(O)CNC(=O)C(CS)Cc1ccccc1` (stereo unspecified) [Thiorphan]: the cell viability (compound concentration: 3 uM) was found to be 115%. For the molecule `Cc1onc(-c2ccccc2)c1C(=O)N[C@@H]1C(=O)N2[C@@H]1SC(C)(C)[C@@H]2C(=O)O` [Oxacillin], the cell viability (compound concentration: 3 uM) worked out at 86.8%. Still for that read-out and setting: in the case of `Cc1onc(-c2ccccc2)c1C(=O)N[C@@H]1C(=O)N2[C@@H]1SC(C)(C)[C@@H]2C(=O)O` it was 107%; in that of `CCCC(CCC)C(=O)O` [Valproic acid sodium], 97.5%; in that of `CCCC(CCC)C(=O)O`, 106%. On to `CCCC(CCC)C(=O)O` [Valproic acid], for which the cell viability (compound concentration: 3 uM) amounted to 107.7 ± 0.99%. In the case of `Nn1nnc2ccccc21` [1-Aminobenzotriazole], the cell viability (compound concentration: 3 uM) amounted to 101%.

Broadly, the cell viability is a read-out of living cells in per cent, often relative to untreated cells.
